Test results reported in PMC8317538.
These are yes or no findings as the source states them, for the method shown. Binding seen in cells or lysates may run through a third protein. Some results given as binding are weak or reduced against the parent protein; the word gives no strength.

The chains behind the UniProt entries cited, without tags or fusion partners.
UniProt Q15910: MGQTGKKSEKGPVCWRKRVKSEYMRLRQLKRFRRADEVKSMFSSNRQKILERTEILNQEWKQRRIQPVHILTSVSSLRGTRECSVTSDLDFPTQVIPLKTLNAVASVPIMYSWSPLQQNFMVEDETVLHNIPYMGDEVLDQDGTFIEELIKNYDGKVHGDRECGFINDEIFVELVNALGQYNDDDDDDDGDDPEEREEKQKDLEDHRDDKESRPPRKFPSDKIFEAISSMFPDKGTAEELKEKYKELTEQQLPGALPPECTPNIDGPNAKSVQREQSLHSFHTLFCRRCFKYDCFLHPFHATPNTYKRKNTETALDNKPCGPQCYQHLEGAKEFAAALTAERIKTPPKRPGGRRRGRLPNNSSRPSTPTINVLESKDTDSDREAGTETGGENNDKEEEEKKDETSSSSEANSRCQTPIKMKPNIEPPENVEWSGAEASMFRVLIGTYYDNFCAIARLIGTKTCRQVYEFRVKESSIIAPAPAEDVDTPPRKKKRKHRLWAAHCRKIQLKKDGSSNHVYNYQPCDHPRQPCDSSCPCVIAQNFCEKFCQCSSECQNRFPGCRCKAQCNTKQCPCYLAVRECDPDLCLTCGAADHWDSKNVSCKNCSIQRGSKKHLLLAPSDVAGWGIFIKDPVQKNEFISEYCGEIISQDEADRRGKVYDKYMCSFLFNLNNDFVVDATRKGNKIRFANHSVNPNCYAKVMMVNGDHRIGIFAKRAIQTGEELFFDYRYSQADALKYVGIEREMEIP
UniProt P40763: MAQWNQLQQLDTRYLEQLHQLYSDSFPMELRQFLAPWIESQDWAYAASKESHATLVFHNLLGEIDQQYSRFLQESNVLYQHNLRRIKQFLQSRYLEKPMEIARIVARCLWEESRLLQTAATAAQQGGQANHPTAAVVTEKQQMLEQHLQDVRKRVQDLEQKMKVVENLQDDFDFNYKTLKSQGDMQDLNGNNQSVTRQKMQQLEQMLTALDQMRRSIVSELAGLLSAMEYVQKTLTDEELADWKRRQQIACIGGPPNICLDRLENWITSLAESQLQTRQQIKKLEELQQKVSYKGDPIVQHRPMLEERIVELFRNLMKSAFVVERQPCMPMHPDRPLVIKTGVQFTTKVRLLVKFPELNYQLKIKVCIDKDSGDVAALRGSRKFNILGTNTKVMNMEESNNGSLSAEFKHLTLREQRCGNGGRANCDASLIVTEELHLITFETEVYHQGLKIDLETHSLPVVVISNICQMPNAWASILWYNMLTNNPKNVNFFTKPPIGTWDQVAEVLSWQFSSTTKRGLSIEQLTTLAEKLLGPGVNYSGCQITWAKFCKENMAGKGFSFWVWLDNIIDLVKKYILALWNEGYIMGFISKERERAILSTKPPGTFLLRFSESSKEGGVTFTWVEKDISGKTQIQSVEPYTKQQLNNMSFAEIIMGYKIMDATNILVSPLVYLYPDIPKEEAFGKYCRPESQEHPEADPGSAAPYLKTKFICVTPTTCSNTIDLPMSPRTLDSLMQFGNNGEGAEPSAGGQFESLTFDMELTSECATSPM

Molecular target: Enhancer of zeste homolog 2 (EZH2) (human (endogenous in breast cancer cell lines)) (UniProt Q15910)
Assay: co-IP; endogenous proteins of breast cancer cells (line not given); total protein in immunoprecipitation lysis buffer, anti-EZH2 or anti-STAT3 antibody for 8 hrs, Protein A/G-coated agarose at 4°C for 4 hrs, SDS-PAGE and immunoblot; reciprocal

## Signal transducer and activator of transcription 3 (STAT3) (from UniProt P40763 1-770)
  binding: binds
